# Laboratory results: patent EP0210342A2, “Medicament containing pyridinones having an antithrombotic activity” (Dr. Karl Thomae GmbH, priority 1985, dated 1987)
# Test system: Thrombusbildung
# Test: Stenosis-induced spontaneous coronary thrombus formation in anaesthetised dogs (shake loose, Folts)
# Assay type: in vivo, Hunde
# Conditions: x ± SE; after stenosis, before substance
row,SMILES,"Fluß im Ramus circumflexus der Arteria coronaria sinistra, Nach Stenose [mL/min]"
1,"COc1ccc2nc(-c3ccc(OCC(O)CNC(C)(C)C)cc3)n(C)c(=O)c2c1 (single isomer, unassigned; (-)) [Verbindung C, (-)-2-2[4-(2-Hydroxy-3-tert.butylamino-propoxy)-phenyl]-3-methyl-6-methoxy-3,4-dihydro-chinazolin-4-on]",19 ± 3
2,"CC(C)NCC(O)COc1ccc(CC(N)=O)cc1 (centres unmarked) [Atenolol, reference compound]",15 ± 3
3,"CC(C)NCC(O)COc1cccc2ccccc12 (centres unmarked) [Propranolol, reference compound]",23 ± 4
4,"COc1ccc2cc(-c3ccc(OCC(O)CNC(C)(C)C)cc3)n(C)c(=O)c2c1 (centres unmarked) [Verbindung A, 2-Methyl-3-[4-(2-hydroxy-3-tert.butylamino-propoxy)-phenyl]-7-methoxy-isochinolin-1-(2H)-on]",24 ± 4
5,"COc1ccc2nc(-c3ccc(OCC(O)CNC(C)(C)C)cc3)n(C)c(=O)c2c1 (centres unmarked) [Verbindung B, 2-[4-(2-Hydroxy-3-tert.butylamino-propoxy)-phenyl]-3-methyl-6-methoxy-3,4-dihydro-chinazolin-4-on]",15 ± 4
